These are yes or no findings as the source states them, for the method shown. Binding calls can cover weak binding; strength is not graded here. Where a sequence is shown, tags or fusion partners need not be part of it.
Tests used:
[1] = molecular target: binary complex of FGFR1c ligand-binding domain with murine αKlotho ectodomain (murine; human); assay: SPR; αKlotho-FGFR1c complex passed over immobilised FGF23
[2] = molecular target: binary complex of FGFR1c ligand-binding domain with murine αKlotho ectodomain (murine; human); assay: SPR; αKlotho-FGFR1c complex (mixed 1:10 with FGF2^ΔHBScore-FGF21^C-tail or FGF21, which did not inhibit) passed over immobilised FGF23
[3] = molecular target: binary complex of FGFR1c ligand-binding domain with murine αKlotho ectodomain (murine; human); assay: SPR competition; FGF23 in solution mixed with a fixed concentration of αKlotho-FGFR1c complex, passed over immobilised FGF23
[4] = molecular target: binary complex of FGFR1c ligand-binding domain with murine αKlotho ectodomain (murine; human); assay: SPR competition; increasing concentrations of competitor mixed with a fixed concentration of αKlotho-FGFR1c complex, passed over an FGF23 chip
[5] = molecular target: binary complex of FGFR1c ligand-binding domain with murine αKlotho ectodomain (murine; human); assay: SPR; increasing concentrations of αKlotho-FGFR1c complex passed over immobilised FGF23

Measured: binding

B1: human FGF23 (Y25 to I251), N-terminally hexahistidine-tagged mature form, with R176Q/R179Q (ligand, not shown: small tags and cut ends)
chain: YPNASPLLGSSWGGLIHLYTATARNSYHLQIHKNGHVDGAPHQTIYSALMIRSEDAGFVVITGVMSRRYLCMDFRGNIFGSHYFDPENCRFQHQTLENGYDVYHSPQYHFLVSLGRAKRAFLPGMNPPPYSQFLSRRNEIPLIHFNTPIPRQHTQSAEDDSERDPLNVLKPRARMTPAPASCSQELPSAEDNSPMASDPLGVVRGGRVNTHAGGTGPEGCRPFAKFI
binds: all assays above
